From paper PMC3890652
Results are given in words; binding and its absence hold for the method and conditions named. In cells and extracts the contact can be indirect. Some results given as binding are weak or reduced against the parent protein; the word gives no strength. Sequences can lack the tags named with a protein.

How the values were obtained:
Assay in all cases: pull-down; FLAG-Stx11 from lysates of transfected HEK-293T cells loaded on protein G-beads with anti-FLAG mAb (2 h, 4°C), washed, then incubated with lysates of HA-Munc18-2 transfected HEK-293T cells for 4 h at 4°C; lysis buffer 20 mM Tris pH 7.4, 2 mM EDTA, 1% Triton-X-100, 10% glycerol, 100 mM NaCl; Western blot; only the target purified
[1] = target: T1, FLAG-tagged syntaxin-11 L58P (human) (UniProt O75558)
T1 sequence: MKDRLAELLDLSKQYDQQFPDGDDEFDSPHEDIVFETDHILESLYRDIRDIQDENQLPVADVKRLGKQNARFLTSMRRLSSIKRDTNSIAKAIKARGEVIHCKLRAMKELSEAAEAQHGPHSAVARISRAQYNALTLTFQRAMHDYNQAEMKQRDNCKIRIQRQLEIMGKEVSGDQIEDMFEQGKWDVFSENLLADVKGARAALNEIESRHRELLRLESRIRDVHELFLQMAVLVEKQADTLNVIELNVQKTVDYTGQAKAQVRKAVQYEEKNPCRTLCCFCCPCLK

[2] = target: T2, FLAG-tagged syntaxin-11 Q268X (human) (UniProt O75558)
T2 sequence: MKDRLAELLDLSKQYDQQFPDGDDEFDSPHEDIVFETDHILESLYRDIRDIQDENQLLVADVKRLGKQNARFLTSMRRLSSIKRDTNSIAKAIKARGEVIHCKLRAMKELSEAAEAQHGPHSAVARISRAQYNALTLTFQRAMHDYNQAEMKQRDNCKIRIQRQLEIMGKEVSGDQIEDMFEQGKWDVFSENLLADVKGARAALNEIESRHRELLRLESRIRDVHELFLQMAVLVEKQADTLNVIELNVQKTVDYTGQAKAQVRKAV

[3] = target: T3, FLAG-tagged syntaxin-11 R4A (human) (UniProt O75558)
T3 sequence: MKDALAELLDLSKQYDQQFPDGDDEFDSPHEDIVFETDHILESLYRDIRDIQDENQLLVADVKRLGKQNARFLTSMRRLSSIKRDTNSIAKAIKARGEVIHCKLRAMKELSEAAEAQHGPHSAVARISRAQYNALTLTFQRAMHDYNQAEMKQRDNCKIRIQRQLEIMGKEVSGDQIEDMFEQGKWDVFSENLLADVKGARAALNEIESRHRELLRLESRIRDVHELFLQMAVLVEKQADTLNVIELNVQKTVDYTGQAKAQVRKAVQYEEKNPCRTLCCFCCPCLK

[4] = target: T4, FLAG-tagged syntaxin-11 wild-type (human) (UniProt O75558)
T4 sequence: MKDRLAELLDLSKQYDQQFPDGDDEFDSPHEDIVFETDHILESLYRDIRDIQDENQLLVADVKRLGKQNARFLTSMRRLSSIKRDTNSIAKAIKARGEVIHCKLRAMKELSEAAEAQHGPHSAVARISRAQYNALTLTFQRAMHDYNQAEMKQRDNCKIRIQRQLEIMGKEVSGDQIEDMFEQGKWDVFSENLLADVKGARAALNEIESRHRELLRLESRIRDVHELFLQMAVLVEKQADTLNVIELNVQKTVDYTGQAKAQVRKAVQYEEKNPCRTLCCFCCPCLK

B1: HA-tagged Munc18-2 wild-type (protein, UniProt Q15833 1-593)
chain: MAPSGLKAVVGEKILSGVIRSVKKDGEWKVLIMDHPSMRILSSCCKMSDILAEGITIVEDINKRREPIPSLEAIYLLSPTEKSVQALIKDFQGTPTFTYKAAHIFFTDTCPEPLFSELGRSRLAKVVKTLKEIHLAFLPYEAQVFSLDAPHSTYNLYCPFRAEERTRQLEVLAQQIATLCATLQEYPAIRYRKGPEDTAQLAHAVLAKLNAFKADTPSLGEGPEKTRSQLLIMDRAADPVSPLLHELTFQAMAYDLLDIEQDTYRYETTGLSEAREKAVLLDEDDDLWVELRHMHIADVSKKVTELLRTFCESKRLTTDKANIKDLSQILKKMPQYQKELNKYSTHLHLADDCMKHFKGSVEKLCSVEQDLAMGSDAEGEKIKDSMKLIVPVLLDAAVPAYDKIRVLLLYILLRNGVSEENLAKLIQHANVQAHSSLIRNLEQLGGTVTNPGGSGTSSRLEPRERMEPTYQLSRWTPVIKDVMEDAVEDRLDRNLWPFVSDPAPTASSQAAVSARFGHWHKNKAGIEARAGPRLIVYVMGGVAMSEMRAAYEVTRATEGKWEVLIGSSHILTPTRFLDDLKALDKKLEDIALP
binding [1]: no binding
binding [2]: binds
binding [3]: no binding
binding [4]: binds
